Reference: the supplement of paper PMC10849652
This is one part of the list.

Sequences of proteins named here, by UniProt entry; tags and fusion partners are left off. A change or cut given only in a name is not applied to a line headed by its entry.
UniProt Q8N6S5: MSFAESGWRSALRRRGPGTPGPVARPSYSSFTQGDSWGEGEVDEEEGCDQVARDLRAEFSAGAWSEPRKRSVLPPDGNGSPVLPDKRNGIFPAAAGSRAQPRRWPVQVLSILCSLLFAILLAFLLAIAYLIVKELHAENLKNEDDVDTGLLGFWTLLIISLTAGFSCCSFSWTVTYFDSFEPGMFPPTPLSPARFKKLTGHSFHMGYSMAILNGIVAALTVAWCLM
UniProt Q13510, whole entry, looked up: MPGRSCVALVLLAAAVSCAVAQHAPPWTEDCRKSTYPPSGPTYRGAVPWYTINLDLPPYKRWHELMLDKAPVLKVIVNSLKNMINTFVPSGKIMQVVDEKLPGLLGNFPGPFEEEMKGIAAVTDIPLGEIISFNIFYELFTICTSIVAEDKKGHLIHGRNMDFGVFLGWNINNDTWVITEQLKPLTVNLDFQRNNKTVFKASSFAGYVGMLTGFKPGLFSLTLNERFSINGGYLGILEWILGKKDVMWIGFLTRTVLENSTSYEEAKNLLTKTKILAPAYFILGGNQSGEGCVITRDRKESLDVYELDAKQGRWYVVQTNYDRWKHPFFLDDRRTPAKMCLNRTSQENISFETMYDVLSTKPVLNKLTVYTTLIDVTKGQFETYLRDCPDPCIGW
UniProt Q96KC2: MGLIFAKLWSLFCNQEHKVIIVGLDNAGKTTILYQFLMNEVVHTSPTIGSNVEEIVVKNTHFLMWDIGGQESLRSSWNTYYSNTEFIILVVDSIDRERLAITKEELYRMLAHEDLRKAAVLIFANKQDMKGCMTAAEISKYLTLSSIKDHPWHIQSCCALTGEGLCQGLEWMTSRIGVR
UniProt O43861: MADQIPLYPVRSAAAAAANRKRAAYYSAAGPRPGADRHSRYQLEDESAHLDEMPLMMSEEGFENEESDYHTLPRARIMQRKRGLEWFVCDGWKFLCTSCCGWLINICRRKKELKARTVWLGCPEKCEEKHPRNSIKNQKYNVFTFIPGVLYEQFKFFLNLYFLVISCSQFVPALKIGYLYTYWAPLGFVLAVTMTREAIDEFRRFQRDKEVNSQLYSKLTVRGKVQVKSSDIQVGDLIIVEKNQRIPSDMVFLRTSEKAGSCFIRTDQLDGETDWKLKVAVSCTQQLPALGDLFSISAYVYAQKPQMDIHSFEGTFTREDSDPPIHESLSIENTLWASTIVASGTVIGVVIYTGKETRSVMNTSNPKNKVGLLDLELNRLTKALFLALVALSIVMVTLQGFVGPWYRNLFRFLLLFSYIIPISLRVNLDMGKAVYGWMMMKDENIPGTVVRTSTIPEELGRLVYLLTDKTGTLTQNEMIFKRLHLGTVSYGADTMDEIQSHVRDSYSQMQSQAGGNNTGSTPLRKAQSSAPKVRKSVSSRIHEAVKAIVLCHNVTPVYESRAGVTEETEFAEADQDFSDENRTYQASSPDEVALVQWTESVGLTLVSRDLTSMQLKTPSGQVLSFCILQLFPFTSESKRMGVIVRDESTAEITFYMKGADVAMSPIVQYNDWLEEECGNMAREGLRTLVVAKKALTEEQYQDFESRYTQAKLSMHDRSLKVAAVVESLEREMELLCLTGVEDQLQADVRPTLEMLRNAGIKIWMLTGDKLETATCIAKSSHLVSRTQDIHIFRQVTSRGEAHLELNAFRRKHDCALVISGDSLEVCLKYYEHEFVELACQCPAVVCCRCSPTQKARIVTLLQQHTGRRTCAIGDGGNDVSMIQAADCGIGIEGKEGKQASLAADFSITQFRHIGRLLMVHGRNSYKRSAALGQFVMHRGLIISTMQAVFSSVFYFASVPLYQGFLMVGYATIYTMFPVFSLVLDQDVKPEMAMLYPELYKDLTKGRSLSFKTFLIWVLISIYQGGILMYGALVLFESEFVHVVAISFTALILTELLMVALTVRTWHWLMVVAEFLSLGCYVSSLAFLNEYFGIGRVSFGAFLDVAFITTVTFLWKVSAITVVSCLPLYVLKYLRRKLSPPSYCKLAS
UniProt Q9UII2: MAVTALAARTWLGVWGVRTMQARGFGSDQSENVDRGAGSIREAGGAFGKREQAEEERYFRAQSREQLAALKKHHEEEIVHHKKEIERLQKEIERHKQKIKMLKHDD
UniProt Q9ULH1: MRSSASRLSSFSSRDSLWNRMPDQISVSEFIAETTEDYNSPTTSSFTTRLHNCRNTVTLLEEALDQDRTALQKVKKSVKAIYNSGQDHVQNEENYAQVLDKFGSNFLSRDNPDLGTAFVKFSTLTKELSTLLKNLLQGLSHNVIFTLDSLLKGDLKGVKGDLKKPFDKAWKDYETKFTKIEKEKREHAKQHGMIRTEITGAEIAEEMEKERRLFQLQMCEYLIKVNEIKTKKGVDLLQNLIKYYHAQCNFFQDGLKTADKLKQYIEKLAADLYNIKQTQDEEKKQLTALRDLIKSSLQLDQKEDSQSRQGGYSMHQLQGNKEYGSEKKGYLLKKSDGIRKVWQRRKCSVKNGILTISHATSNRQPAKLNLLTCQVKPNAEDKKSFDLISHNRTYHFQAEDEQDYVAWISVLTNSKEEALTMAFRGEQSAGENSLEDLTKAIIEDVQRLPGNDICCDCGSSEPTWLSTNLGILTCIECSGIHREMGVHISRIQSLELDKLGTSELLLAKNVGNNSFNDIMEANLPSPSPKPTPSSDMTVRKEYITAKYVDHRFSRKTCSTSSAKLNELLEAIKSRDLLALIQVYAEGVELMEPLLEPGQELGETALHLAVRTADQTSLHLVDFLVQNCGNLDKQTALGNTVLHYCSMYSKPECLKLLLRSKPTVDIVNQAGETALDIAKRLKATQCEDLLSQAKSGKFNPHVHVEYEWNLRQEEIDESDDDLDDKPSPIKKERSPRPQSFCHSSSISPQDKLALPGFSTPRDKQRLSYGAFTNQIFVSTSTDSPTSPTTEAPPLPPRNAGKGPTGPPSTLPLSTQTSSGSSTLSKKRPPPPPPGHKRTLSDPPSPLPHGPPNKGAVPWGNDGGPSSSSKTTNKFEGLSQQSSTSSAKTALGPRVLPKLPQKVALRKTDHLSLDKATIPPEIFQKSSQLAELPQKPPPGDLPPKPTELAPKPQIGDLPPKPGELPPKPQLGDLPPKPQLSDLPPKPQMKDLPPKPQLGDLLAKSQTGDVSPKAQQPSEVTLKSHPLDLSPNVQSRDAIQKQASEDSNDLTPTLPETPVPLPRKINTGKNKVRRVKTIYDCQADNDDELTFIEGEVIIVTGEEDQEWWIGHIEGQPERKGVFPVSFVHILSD
UniProt P98198: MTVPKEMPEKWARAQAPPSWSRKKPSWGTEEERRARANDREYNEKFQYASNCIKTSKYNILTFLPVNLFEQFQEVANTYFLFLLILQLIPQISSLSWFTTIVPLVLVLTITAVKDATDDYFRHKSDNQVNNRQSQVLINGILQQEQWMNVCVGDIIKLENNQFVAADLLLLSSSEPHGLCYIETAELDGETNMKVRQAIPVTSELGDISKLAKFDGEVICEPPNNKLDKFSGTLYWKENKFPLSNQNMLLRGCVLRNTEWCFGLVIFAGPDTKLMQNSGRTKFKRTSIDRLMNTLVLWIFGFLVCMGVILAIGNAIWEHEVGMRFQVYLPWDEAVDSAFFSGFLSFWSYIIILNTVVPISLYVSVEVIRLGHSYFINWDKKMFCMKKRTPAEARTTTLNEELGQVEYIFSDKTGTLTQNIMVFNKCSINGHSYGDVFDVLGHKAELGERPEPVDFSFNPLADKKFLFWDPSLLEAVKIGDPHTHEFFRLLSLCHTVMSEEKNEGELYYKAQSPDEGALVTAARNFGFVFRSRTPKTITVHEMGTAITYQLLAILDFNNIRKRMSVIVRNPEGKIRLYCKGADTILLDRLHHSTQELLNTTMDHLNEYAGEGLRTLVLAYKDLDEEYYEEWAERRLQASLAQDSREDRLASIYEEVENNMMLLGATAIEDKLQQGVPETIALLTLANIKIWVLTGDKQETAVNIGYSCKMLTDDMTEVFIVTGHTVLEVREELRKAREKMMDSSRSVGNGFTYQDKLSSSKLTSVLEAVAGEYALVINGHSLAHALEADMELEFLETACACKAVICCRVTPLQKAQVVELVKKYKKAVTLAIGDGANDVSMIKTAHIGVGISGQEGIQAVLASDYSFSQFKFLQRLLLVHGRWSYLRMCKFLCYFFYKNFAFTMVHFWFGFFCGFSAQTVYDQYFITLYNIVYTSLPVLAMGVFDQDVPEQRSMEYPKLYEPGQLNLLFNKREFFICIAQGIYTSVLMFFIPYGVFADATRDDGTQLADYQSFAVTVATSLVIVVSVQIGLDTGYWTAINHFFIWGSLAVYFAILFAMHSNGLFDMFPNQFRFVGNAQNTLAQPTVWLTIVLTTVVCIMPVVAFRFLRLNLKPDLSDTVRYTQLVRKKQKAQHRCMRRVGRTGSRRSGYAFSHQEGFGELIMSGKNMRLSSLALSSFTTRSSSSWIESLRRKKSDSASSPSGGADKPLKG

How the values were obtained:
Experiment in all cases: log2 fold change, soluble protein after heating vs DMSO (PISA); higher = thermal stabilisation; K562 cells, 10 uM, 30 min; active = over 0.2 and 3.5 SD of the protein, either way, in both replicates (recomputed)
[1] = compound: C1=CC=C(C=C1)[C@H](COC2=CC3=C(C=C2)NC(=O)N3)NC(=O)C4=CC=CN(C4=O)CC5=CC(=C(C=C5)F)F
Outline: (§1)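 Quantification of soluble protein used TMTpro 16plex LC-MS/MS, with channel sums equalised. Samples were the supernatant after 21,000xg for 90 min of pooled aliquots from K562 cells (2×10^6 cells/mL) treated with 10 μM compound for 30 min, heated for 3 min over 48°C-58°C, and extracted in PBS with 0.5% NP-40 at 4°C. Values, from duplicates, describe thermal stability against control samples on a log2 fold-change scale.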

[2] = compound: CC1=C(SC2=C1C(=N[C@H](C3=NN=C(N32)C)CC(=O)N)C4=CC=C(C=C4)Cl)C
Outline: as §1

[3] = compound: CC1=C2C(=CC=C1)N=C(N(C2=O)C3=CC=CC=C3C)CN4C=NC5=C(N=CN=C54)N
Outline: as §1

[4] = compound: Cc1sc2c(c1C)C(c1ccc(Cl)cc1)=N[C@@H](CC(=O)OC(C)(C)C)c1nnc(C)n1-2
Outline: as §1

[5] = compound: c1ccc([C@@H]2C[C@H]2NC2CCNCC2)cc1
Outline: as §1

Measured: log2 fold change

ARL6IP6 (UniProt Q8N6S5)
inactive: [1] -0.003 | [2] 0.113 | [3] 0.08 | [4] 0.164 | [5] 0.118

ARPC1B (UniProt O15143)
inactive: [1] 0.035 | [2] 0.004 | [3] -0.175 | [4] -0.051 | [5] -0.032

ASAH1 isoform 2 (UniProt Q13510)
inactive: [1] 0.023 | [2] 0.019 | [3] -0.1 | [4] -0.014 | [5] 0.01

ARL5B (UniProt Q96KC2)
inactive: [1] -0.087 | [2] 0.107 | [3] 0.216 | [4] 0.016 | [5] 0.056

ATP9B (UniProt O43861)
inactive: [1] -0.092 | [2] -0.001 | [3] 0.055 | [4] -0.048 | [5] 0.071

2 consecutive entries from above, quoted:
ARPC1B (UniProt O15143)
inactive: [1] 0.035 | [2] 0.004 | [3] -0.175 | [4] -0.051 | [5] -0.032

ASAH1 isoform 2 (UniProt Q13510)
inactive: [1] 0.023 | [2] 0.019 | [3] -0.1 | [4] -0.014 | [5] 0.01

Next part

ATP5IF1 (UniProt Q9UII2)
inactive: [1] 0.016 | [2] -0.087 | [3] -0.031 | [4] -0.013 | [5] -0.079

ASAP1 isoform 2 (UniProt Q9ULH1)
inactive: [1] -0.114 | [2] 0.025 | [3] 0.25 | [4] 0.102 | [5] 0.005

ATP8B2 isoform 3 (UniProt P98198)
inactive: [3] 0.122
